Measurements reported in PMC6702741.
Results are given in words; binding and its absence hold for the method and conditions named. Binding seen in cells or lysates may run through a third protein. Some results given as binding are weak or reduced against the parent protein; the word gives no strength.

Protein sequences, listed by entry. Tags and fused reporters are not part of them.
UniProt P51608: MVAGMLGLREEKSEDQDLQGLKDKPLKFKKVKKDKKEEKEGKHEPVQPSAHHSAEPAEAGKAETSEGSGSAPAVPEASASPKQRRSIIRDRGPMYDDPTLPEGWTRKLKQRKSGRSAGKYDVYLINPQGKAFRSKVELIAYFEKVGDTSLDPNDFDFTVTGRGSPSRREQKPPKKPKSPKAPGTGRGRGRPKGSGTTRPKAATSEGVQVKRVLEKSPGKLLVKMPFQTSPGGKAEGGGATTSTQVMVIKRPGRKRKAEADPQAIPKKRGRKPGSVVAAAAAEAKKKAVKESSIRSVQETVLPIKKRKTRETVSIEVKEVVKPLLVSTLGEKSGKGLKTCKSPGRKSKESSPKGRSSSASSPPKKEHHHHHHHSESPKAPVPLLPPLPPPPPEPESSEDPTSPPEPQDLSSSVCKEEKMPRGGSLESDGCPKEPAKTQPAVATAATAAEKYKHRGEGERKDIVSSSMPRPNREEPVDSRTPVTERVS

Target: T1, suppressor of variegation 39H1 (SUV39H1) (human (endogenous in glioma cells)) (UniProt O43463)
T1 sequence: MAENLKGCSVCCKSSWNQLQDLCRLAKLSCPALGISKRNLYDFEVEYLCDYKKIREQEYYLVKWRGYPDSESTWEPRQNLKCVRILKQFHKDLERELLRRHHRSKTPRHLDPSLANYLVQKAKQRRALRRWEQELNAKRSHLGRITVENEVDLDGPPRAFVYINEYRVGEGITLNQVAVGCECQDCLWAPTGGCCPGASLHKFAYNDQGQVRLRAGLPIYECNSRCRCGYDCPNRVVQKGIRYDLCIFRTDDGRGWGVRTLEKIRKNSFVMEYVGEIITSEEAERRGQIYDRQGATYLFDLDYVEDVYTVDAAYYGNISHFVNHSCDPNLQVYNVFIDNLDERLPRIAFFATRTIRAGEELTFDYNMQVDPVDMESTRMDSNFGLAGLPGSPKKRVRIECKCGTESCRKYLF
Assay: co-IP; endogenous proteins in glioma cells; complexes precipitated with protein A/G agarose, western blot with anti-MeCP2 and anti-SUV39H1; done in both directions

binding: binds
Substance: Methyl CpG-binding protein 2 (MeCP2) (from UniProt P51608 1-486)
